Measured values: PMC8973626
No constants are given. Whether binding was seen depends on the method and setting. Binding seen in cells or lysates may run through a third protein. Some binding calls cover weakened binding; strength is not graded here.

Molecular target: T1, receptor interacting protein 140 (RIP140) (human (endogenous in HPMECs)) (UniProt P48552)
T1 sequence: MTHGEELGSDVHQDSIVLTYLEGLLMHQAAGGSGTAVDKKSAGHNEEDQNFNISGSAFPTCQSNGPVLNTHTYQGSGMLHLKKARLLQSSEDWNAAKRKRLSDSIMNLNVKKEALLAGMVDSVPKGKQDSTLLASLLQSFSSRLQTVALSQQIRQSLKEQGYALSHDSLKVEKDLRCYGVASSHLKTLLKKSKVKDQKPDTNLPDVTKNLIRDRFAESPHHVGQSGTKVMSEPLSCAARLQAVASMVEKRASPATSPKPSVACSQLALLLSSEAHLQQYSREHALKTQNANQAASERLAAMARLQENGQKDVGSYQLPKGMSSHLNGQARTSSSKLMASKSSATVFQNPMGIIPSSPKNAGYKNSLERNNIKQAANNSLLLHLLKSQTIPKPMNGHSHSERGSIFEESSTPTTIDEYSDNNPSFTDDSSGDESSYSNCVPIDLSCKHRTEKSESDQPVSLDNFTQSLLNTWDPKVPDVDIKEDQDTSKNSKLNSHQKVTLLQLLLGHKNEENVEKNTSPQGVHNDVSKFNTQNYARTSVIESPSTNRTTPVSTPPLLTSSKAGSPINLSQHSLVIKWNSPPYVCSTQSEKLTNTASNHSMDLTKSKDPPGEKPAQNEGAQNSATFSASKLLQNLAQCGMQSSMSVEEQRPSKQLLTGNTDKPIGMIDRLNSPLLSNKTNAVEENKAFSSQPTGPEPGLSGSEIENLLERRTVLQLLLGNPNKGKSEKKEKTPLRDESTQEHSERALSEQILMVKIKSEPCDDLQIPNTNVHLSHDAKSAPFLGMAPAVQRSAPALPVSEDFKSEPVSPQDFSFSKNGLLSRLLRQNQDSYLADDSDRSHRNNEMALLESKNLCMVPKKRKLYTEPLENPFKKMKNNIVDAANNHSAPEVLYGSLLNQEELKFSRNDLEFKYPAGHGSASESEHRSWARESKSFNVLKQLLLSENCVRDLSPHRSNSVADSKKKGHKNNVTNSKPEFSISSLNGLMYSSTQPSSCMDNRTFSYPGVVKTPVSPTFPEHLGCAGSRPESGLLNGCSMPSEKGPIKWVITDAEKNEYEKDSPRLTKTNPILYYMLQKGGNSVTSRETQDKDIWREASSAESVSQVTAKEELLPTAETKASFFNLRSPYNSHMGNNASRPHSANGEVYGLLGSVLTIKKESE
Assay: co-IP; lysate of treated HPMECs; 1 ug of corresponding antibody and protein A/G-beads, 4°C overnight; eluted proteins analysed by Western blotting

binding: binds
Substance: C-terminal binding protein 2 (CTBP2) (from UniProt P56545 1-445)
